These are yes or no findings as the source states them, for the method shown. Binding seen in cells or lysates may run through a third protein. Some entries that bind do so weakly or less than the wild type.

Sequences of proteins named here, by UniProt entry; tags and fusion partners are left off. A change or cut given only in a name is not applied to a line headed by its entry. A line that says so, or that is headed by a name, gives the form on record, which may keep a tag or linker.
UniProt P00519: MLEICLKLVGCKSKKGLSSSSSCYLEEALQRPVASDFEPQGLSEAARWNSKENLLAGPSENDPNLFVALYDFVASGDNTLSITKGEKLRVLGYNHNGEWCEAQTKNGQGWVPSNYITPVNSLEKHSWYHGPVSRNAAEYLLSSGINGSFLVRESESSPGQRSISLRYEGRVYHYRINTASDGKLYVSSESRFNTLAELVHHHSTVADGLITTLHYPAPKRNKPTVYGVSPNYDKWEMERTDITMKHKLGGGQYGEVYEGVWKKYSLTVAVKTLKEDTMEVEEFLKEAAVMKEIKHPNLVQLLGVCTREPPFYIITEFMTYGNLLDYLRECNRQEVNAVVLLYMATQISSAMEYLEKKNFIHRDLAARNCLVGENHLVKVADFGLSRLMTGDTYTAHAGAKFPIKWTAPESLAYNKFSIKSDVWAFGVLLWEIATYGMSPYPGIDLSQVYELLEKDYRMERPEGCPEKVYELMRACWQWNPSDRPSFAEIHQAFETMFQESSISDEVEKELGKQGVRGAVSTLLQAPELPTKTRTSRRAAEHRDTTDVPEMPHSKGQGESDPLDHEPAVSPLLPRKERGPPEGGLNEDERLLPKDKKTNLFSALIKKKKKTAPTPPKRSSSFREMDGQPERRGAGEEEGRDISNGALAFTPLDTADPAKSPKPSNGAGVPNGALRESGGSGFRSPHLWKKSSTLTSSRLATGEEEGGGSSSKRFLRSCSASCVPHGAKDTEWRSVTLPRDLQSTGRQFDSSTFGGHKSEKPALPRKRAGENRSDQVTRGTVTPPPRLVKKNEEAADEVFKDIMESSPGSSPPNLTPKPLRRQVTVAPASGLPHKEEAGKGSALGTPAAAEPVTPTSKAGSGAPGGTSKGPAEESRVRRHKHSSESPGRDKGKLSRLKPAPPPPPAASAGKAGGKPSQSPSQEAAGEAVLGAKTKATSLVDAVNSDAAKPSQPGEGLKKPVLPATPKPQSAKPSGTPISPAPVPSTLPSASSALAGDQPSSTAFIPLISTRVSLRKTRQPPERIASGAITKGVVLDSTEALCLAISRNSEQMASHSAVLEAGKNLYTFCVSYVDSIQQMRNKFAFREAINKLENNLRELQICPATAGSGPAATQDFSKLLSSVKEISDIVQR
Myc-tagged QI-AA mutant of c-Abl (P00519, form named): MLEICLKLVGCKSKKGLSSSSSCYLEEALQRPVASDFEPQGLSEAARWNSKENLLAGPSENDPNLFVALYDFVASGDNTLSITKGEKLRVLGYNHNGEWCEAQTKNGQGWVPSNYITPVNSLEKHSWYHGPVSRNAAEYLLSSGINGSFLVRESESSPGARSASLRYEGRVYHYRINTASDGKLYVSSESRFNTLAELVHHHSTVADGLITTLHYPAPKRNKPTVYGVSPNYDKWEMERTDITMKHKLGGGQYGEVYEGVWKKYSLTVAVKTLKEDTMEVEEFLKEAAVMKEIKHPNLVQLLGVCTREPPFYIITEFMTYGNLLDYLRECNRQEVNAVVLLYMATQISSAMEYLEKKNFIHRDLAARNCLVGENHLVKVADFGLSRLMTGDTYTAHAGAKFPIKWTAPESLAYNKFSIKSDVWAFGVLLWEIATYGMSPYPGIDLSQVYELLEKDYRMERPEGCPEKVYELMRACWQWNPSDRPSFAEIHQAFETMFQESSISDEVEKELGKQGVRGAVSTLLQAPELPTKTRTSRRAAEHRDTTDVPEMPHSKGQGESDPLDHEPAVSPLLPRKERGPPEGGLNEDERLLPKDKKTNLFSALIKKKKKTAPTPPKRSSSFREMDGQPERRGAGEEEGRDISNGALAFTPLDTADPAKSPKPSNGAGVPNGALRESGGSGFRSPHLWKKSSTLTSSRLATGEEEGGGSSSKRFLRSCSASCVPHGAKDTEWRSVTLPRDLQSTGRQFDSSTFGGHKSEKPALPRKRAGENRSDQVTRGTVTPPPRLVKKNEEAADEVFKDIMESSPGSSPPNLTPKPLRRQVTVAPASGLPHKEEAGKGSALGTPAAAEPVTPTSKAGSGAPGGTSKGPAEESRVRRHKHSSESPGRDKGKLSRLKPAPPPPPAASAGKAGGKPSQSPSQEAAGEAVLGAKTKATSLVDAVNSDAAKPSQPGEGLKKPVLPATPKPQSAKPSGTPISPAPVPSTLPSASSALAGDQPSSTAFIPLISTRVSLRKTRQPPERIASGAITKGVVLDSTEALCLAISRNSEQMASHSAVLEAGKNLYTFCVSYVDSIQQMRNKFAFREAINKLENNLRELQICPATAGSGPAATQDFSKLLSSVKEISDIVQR
UniProt P12004: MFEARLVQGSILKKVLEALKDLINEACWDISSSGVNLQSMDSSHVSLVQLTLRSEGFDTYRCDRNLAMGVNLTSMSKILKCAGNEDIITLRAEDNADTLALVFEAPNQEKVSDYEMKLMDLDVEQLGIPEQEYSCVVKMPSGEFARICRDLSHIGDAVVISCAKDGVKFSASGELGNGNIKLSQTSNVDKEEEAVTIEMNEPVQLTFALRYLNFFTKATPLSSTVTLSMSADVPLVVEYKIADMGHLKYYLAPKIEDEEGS

Among the data in paper PMC3251568 are binding values, retold here.

Experiment [1] has as its target non-receptor tyrosine kinase c-Abl, endogenous (human (endogenous in BT474, MDA-MB-231, HEK293T)) (UniProt P00519). Briefly: co-IP; endogenous proteins in lysates of BT474 and MDA-MB-231 cells (NETN buffer: 150 mM NaCl, 20 mM Tris pH 8.0, 0.5% NP-40); IP with anti-c-Abl antibody at 4°C overnight, protein G agarose, blot for PCNA; also cells with or without ionizing irradiation (10 Gy, 2 h), which enhanced the interaction.

For experiment [2], the target named is Myc-tagged QI-AA mutant of c-Abl (UniProt P00519). The experiment in a line: co-IP; HEK293T cells transfected with Myc-tagged wild-type or QI-AA mutant c-Abl or control vector; IP with anti-Myc antibody; co-precipitated endogenous PCNA by western analysis with anti-PCNA antibody.
For experiment [3], the target named is Myc-tagged wild-type c-Abl (UniProt P00519). The experiment is described as above.
Experiment [4] addresses non-receptor tyrosine kinase c-Abl, endogenous (human (endogenous in BT474, MDA-MB-231, HEK293T)) (UniProt P00519). Briefly: co-IP; HEK293T cells transfected with FLAG-tagged wild-type or Y211F PCNA; endogenous c-Abl precipitated with anti-c-Abl antibody; co-precipitated FLAG-PCNA by western analysis.

For “proliferating cell nuclear antigen (PCNA), endogenous (from UniProt P12004 1-261)”, the binding result in experiment [1], in experiment [2] and in experiment [3] was “binds” throughout.
Consider “FLAG-tagged wild-type PCNA (from UniProt P12004 1-261)”, for which the binding entry in experiment [4] is on record as “binds”.
